Laboratory results published in patent US20240173292A1, “COMPOUNDS THAT SYNERGIZE WITH COPPER TO KILL STREPTOCOCCUS PNEUMONIAE” (priority 2021, published 2024).
“Also recorded” adds a separate entry of the source. At least one structure is not confirmed: it was looked up by name or label, or the drawing left a doubt.

Assays:
[1] = test system: WT TIGR4 S. pneumoniae; assay: Killing curves in THYB; conditions: compound alone or with copper sulfate
[2] = test system: WT TIGR4 S. pneumoniae; assay: Growth curves in ThyB with copper sulfate and compound

SMILES: CCN(CC)C(=S)S [DETDC, N,N-diethyldithiocarbamate]
- bactericidal activity in killing curve [1]: no bactericidal activity; also recorded: without bactericidal effect
- CDT at much higher / high concentrations [2]: ineffective
